Results from article PMC9363421.
No constants are given. Whether binding was seen depends on the method and setting. In cells and extracts the contact can be indirect. Binding can be weak; no strength is given. For part of these data: Sequences can lack the tags named with a protein.

Chains of the proteins cited; added tags and fusions are not shown. Lines headed by an entry give the natural chain unless they say otherwise; changes in a name come on top.
UniProt Q06210: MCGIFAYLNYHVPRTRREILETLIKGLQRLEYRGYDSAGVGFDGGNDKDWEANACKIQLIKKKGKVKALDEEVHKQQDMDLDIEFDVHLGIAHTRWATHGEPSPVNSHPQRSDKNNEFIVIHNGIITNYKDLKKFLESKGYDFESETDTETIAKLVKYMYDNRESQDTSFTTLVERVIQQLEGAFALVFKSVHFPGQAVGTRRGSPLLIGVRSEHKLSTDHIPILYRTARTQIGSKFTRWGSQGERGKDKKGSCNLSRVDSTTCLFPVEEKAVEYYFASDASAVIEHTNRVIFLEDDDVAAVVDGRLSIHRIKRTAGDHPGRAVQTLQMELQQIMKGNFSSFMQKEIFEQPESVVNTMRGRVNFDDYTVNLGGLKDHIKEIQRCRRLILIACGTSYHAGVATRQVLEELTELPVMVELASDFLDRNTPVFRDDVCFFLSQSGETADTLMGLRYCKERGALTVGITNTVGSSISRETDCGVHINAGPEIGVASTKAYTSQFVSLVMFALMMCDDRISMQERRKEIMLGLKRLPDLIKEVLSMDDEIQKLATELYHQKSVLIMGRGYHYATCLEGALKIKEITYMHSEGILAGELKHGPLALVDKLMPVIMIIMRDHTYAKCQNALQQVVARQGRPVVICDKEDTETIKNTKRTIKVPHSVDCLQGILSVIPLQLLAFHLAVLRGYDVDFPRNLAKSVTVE

Assays:
[1] = biological target: T1, HA-rTAB1-S438D (human) (UniProt Q15750); assay: co-IP; A549 (and H1299) cells with depleted TAB1 and reconstituted rTAB1 WT or mutants, basal or 8 h glucose deprivation (also with CoCl2 10 μM or exogenous glutamate); immunoprecipitation (anti-HA) and immunoblotting
T1 sequence: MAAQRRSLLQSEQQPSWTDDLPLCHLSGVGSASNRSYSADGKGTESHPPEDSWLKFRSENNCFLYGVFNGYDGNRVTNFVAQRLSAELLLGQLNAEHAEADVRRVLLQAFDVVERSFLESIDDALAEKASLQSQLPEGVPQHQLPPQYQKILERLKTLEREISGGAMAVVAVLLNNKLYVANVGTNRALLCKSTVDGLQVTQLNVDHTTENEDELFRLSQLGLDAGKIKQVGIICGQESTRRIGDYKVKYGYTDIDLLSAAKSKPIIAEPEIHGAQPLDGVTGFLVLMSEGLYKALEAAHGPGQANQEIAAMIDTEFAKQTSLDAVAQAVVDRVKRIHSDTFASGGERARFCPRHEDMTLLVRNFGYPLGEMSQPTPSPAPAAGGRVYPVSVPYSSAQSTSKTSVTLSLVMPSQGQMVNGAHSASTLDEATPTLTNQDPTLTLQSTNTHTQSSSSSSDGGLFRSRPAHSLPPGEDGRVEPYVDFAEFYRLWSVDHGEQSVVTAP

[2] = biological target: T2, TAB1-S423A, transiently expressed (human) (UniProt Q15750); assay: co-IP; A549 cells with transient expression of WT TAB1 or TAB1 mutants, 8 h glucose deprivation; immunoprecipitation and immunoblotting
T2 sequence: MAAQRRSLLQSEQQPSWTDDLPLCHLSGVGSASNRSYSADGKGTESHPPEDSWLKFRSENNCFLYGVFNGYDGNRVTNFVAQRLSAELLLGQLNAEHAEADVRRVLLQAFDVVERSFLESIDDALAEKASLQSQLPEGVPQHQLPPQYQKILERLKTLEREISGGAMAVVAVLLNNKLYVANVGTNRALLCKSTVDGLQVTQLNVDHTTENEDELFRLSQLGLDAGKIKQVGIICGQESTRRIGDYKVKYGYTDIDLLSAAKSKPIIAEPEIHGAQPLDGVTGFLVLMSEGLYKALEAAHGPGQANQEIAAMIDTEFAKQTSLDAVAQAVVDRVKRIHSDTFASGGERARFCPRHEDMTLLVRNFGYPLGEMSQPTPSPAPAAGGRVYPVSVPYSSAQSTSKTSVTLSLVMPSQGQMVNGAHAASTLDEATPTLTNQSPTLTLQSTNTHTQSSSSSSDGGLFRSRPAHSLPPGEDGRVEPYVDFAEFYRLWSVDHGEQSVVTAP

[3] = biological target: T3, TAB1-T431A, transiently expressed (human) (UniProt Q15750); assay: as above
T3 sequence: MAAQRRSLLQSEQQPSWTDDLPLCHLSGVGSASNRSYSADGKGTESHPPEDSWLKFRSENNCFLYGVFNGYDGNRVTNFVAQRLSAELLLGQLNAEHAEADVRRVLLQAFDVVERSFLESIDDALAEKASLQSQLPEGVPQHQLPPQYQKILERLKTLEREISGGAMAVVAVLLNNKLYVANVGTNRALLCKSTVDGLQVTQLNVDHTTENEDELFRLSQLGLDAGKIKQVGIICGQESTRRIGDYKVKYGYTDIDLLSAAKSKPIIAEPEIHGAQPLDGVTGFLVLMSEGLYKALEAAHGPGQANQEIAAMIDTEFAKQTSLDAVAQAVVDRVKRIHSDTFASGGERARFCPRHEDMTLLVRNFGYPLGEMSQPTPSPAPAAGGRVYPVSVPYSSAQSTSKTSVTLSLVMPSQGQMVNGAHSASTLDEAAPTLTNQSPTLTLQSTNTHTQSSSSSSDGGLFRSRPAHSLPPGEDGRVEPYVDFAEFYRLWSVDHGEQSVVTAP

[4] = biological target: Flag-GFAT1 (glutamine-fructose-6-phosphate amidotransferase 1) (human) (UniProt Q06210); assay: co-IP; Flag-GFAT1 immunoprecipitation from A549 cells with stable expression, with or without 8 h glucose deprivation; immunoblotting
[5] = biological target: glutamine-fructose-6-phosphate amidotransferase 1 (GFAT1), endogenous (human (endogenous in A549 and H1299)) (UniProt Q06210); assay: co-IP; endogenous proteins, A549 and H1299 lysates, 8 h glucose deprivation; lysis buffer 50 mM Tris-HCl pH 7.4, 150 mM NaCl, 1 mM EDTA, 1% NP-40, 1% sodium deoxycholate, 0.1% SDS; antibody and protein G beads overnight at 4 °C; cells also with single kinase inhibitors, TAB1 depletion, rTAB1 or rGFAT1 reconstitution, glutamine deprivation, exogenous glutamate or GlcN, CoCl2
[6] = biological target: GST-GFAT1 (human) (UniProt Q06210); assay: pull-down; purified GST-GFAT1 mixed with lysates of A549 cells cultured 8 h under glucose deprivation; immunoblotting; only the target purified

## glutamine-fructose-6-phosphate amidotransferase 1 (GFAT1), endogenous (from UniProt Q06210-2) (enzyme)
[1]
  binding: binds
[2]
  binding: binds
[3]
  binding: binds

B1: TTLL5, endogenous (enzyme, UniProt Q6EMB2 1-1281)
chain: MPIVMARDLEETASSSEDEEVISQEDHPCIMWTGGCRRIPVLVFHADAILTKDNNIRVIGERYHLSYKIVRTDSRLVRSILTAHGFHEVHPSSTDYNLMWTGSHLKPFLLRTLSEAQKVNHFPRSYELTRKDRLYKNIIRMQHTHGFKAFHILPQTFLLPAEYAEFCNSYSKDRGPWIVKPVASSRGRGVYLINNPNQISLEENILVSRYINNPLLIDDFKFDVRLYVLVTSYDPLVIYLYEEGLARFATVRYDQGAKNIRNQFMHLTNYSVNKKSGDYVSCDDPEVEDYGNKWSMSAMLRYLKQEGRDTTALMAHVEDLIIKTIISAELAIATACKTFVPHRSSCFELYGFDVLIDSTLKPWLLEVNLSPSLACDAPLDLKIKASMISDMFTVVGFVCQDPAQRASTRPIYPTFESSRRNPFQKPQRCRPLSASDAEMKNLVGSAREKGPGKLGGSVLGLSMEEIKVLRRVKEENDRRGGFIRIFPTSETWEIYGSYLEHKTSMNYMLATRLFQDRMTADGAPELKIESLNSKAKLHAALYERKLLSLEVRKRRRRSSRLRAMRPKYPVITQPAEMNVKTETESEEEEEVALDNEDEEQEASQEESAGFLRENQAKYTPSLTALVENTPKENSMKVREWNNKGGHCCKLETQELEPKFNLMQILQDNGNLSKMQARIAFSAYLQHVQIRLMKDSGGQTFSASWAAKEDEQMELVVRFLKRASNNLQHSLRMVLPSRRLALLERRRILAHQLGDFIIVYNKETEQMAEKKSKKKVEEEEEDGVNMENFQEFIRQASEAELEEVLTFYTQKNKSASVFLGTHSKISKNNNNYSDSGAKGDHPETIMEEVKIKPPKQQQTTEIHSDKLSRFTTSAEKEAKLVYSNSSSGPTATLQKIPNTHLSSVTTSDLSPGPCHHSSLSQIPSAIPSMPHQPTILLNTVSASASPCLHPGAQNIPSPTGLPRCRSGSHTIGPFSSFQSAAHIYSQKLSRPSSAKAGSCYLNKHHSGIAKTQKEGEDASLYSKRYNQSMVTAELQRLAEKQAARQYSPSSHINLLTQQVTNLNLATGIINRSSASAPPTLRPIISPSGPTWSTQSDPQAPENHSSSPGSRSLQTGGFAWEGEVENNVYSQATGVVPQHKYHPTAGSYQLQFALQQLEQQKLQSRQLLDQSRARHQAIFGSQTLPNSNLWTMNNGAGCRISSATASGQKPTTLPQKVVPPPSSCASLVPKPPPNHEQVLRRATSQKASKGSSAEGQLNGLQSSLNPAAFVPITSSTDPAHTKI
[4]
  binding: binds
[5]
  binding: binds

B2: transforming growth factor β-activated kinase 1 binding protein 1 (TAB1), endogenous (protein, UniProt Q15750 1-504)
chain: MAAQRRSLLQSEQQPSWTDDLPLCHLSGVGSASNRSYSADGKGTESHPPEDSWLKFRSENNCFLYGVFNGYDGNRVTNFVAQRLSAELLLGQLNAEHAEADVRRVLLQAFDVVERSFLESIDDALAEKASLQSQLPEGVPQHQLPPQYQKILERLKTLEREISGGAMAVVAVLLNNKLYVANVGTNRALLCKSTVDGLQVTQLNVDHTTENEDELFRLSQLGLDAGKIKQVGIICGQESTRRIGDYKVKYGYTDIDLLSAAKSKPIIAEPEIHGAQPLDGVTGFLVLMSEGLYKALEAAHGPGQANQEIAAMIDTEFAKQTSLDAVAQAVVDRVKRIHSDTFASGGERARFCPRHEDMTLLVRNFGYPLGEMSQPTPSPAPAAGGRVYPVSVPYSSAQSTSKTSVTLSLVMPSQGQMVNGAHSASTLDEATPTLTNQSPTLTLQSTNTHTQSSSSSSDGGLFRSRPAHSLPPGEDGRVEPYVDFAEFYRLWSVDHGEQSVVTAP
[6]
  binding: binds
